Assay results published in the supplement of paper PMC3047530.
This is one part of the list. Repeats are few or missing, and single values can be far off.

These compounds were tested on Geomyces destructans (assay: growth inhibition relative to DMSO control; higher = stronger growth inhibition). Settings: 10 µM; 15 °C; incubation time 10 days.

Row | Structure (SMILES) | growth inhibition [%]
1 | ClC1=C(Cl)C2(Cl)C3C4CC(C5OC45)C3C1(Cl)C2(Cl)Cl (stereo not drawn) | -4.39
2 | O=C(O)c1nn(Cc2ccc(Cl)cc2Cl)c2ccccc12 | -0.92
3 | C[C@@H]1C[C@@H]([C@H](O)CC2CC(=O)NC(=O)C2)C(=O)[C@@H](C)C1 | 44.6
4 | COc1cc2c(cc1O)CCN[C@@H]2C | -7.69
5 | CC(=O)[O-].CC(=O)[O-].[Cd+2] | 4.18
6 | COc1cc2c(cc1OC)[C@@H]1C(=O)c3ccc4c(c3O[C@@H]1CO2)CC(C(C)C)O4 (stereo partly drawn) | -12.8
7 | CC[C@@H](CO)NC(=O)[C@@H]1C=C2c3cccc4[nH]cc(c34)C[C@H]2N(C)C1 | -37
8 | CCCCOC(=O)c1ccccc1C(=O)OCCCC | 9.48
9 | COC(=O)C=C(C)OP(=O)(OC)OC | -3.78
10 | CCC(C)C(=O)OC1CC2(C)C(c3ccoc3)OC(=O)CC23OC2(C)OC34C(OC(=O)C(C)C)C3(O)C(OC(=O)C5(C)OC5C)C5(C)CC3(O)C(C)(C5CC(=O)OC)C14O2 (stereo not drawn) | -8.54
11 | C=CCc1cc(OC)c2c(c1OC)OCO2 | -7.68
12 | c1cncc([C@@H]2CCCCN2)c1 | -2.02
13 | CC(C)(O)[C@@H]1[C@H]2OC(=O)[C@@H]1[C@]1(O)C[C@H]3O[C@]34C(=O)O[C@H]2[C@]14C | -6.07
14 | CC(C)(C#N)O[C@@H]1O[C@H](CO)[C@@H](O)[C@H](O)[C@H]1O | -4.71
15 | C=C(C)[C@H]1Cc2c(ccc3c(=O)c4c(oc23)COc2cc(OC)c(OC)cc2-4)O1 | 8.58
16 | Clc1ccc(Cl)cc1 | -8.51
17 | CN[C@@H]1[C@@H](O)[C@@H](O[C@@H]2[C@@H](O)[C@H](O[C@H]3O[C@H](CN)CC[C@H]3N)[C@@H](N)C[C@H]2N)OC[C@]1(C)O.CN[C@@H]1[C@@H](O)[C@@H](O[C@@H]2[C@@H](O)[C@H](O[C@H]3O[C@H]([C@@H](C)N)CC[C@H]3N)[C@@H](N)C[C@H]2N)OC[C@]1(C)O.CN[C@@H]1[C@@H](O)[C@@H](O[C@@H]2[C@@H](O)[C@H](O[C@H]3O[C@H]([C@@H](C)NC)CC[C@H]3N)[C@@H](N)C[C@H]2N)OC[C@]1(C)O | -2.05
18 | COc1ccc2c(c1O)-c1c(OC)c(OC)cc3c1[C@H](C2)N(C)CC3 | -6.04
19 | NC(=O)c1cc([N+](=O)[O-])cc([N+](=O)[O-])c1 | -15.8
20 | O=C1CC[C@@]2(O)[C@H]3Cc4ccc(O)c5c4[C@@]2(CCN3CC2CC2)[C@H]1O5 | -5.04
21 | CC(=O)[C@H]1CC[C@H]2[C@@H]3CC[C@H]4C[C@H](O)CC[C@]4(C)[C@H]3CC[C@]12C | 2.99

Row | Structure (SMILES) | growth inhibition [%]
22 | CCOC(=O)CC(SP(=S)(OC)OC)C(=O)OCC (stereo not drawn) | -10.6
23 | NCC(CC(=O)O)c1ccc(Cl)cc1 (stereo not drawn) | -25.6
24 | CC(NC(C)(C)C)C(=O)c1cccc(Cl)c1 (stereo not drawn) | 2.03
25 | C[C@@H]1O[C@@H](O[C@H]2CC[C@]3(C=O)[C@H]4CC[C@]5(C)[C@@H](C6=CC(=O)OC6)CC[C@]5(O)[C@@H]4CC[C@]3(O)C2)[C@H](O)[C@H](O)[C@H]1O | -18.3
26 | CN1[C@@H]2C[C@@H](OC(=O)[C@H](CO)c3ccccc3)C[C@H]1[C@@H]1O[C@@H]12 | 0.89
27 | CC1(C)C2CC(=O)[C@]3(C)C(CC[C@@]4(C)[C@H](c5ccoc5)OC(=O)C5OC543)[C@@]2(C)[C@@H](O)C[C@H]1O (stereo partly drawn) | 1.97
28 | ClC(Cl)=C(c1ccc(Cl)cc1)c1ccc(Cl)cc1 | 2.92
29 | CCOC(=O)C1C(C=C(C)C)C1(C)C (stereo not drawn) | 0.578
30 | CCOP(=S)(OCC)SCSCC | -5.61
31 | CCC1C2CC3C4N(C)c5ccccc5C45CC(C2C5OC(C)=O)N3C1OC(C)=O (stereo not drawn) | -14.9
32 | CCC(C)C(=O)O[C@@H]1C[C@@]2(C)[C@H](c3ccoc3)OC(=O)CC23OC2(C)O[C@]14[C@]1(C)[C@@H](CC(=O)OC)C5(C)CC1(O)[C@](O)(C5OC(=O)C1(C)OC1C)[C@@H](OC(C)=O)[C@]34O2 (stereo partly drawn) | -4.75
33 | N[C@@H]1C[C@H]1c1ccccc1 | -42.3
34 | NNCc1cccc(O)c1 | 4.37
35 | [O-][n+]1ccccc1[S-].[O-][n+]1ccccc1[S-].[Zn+2] | 81.1
36 | Cc1ccc2cc3c(ccc4ccccc43)c3c2c1CC3 | -25.2
37 | C[C@@H]1C(=O)O[C@H]2[C@H]1CC[C@@]1(C)C=CC(=O)[C@@]3(C)O[C@@]213 [EPOXY (4,5alpha)-4,5-DIHYDROSANTONIN] | -24.9
38 | C=CCN1CC[C@]23c4c5ccc(O)c4O[C@H]2C(=O)CC[C@@]3(O)[C@H]1C5 | 0.28
39 | C=CCc1ccc2c(c1)OCO2 | 3.28
40 | CCCC(C)C1(CC)C(=O)NC(=O)NC1=O (stereo not drawn) | -13.9
41 | C=C1C([C@]2(C)C(CC(=O)OC)[C@@](C)(COC(C)=O)OC(=O)C[C@@H]2OC(C)=O)[C@@H](OC=O)[C@H](OC(=O)C(OC(C)=O)C(C)CC)[C@@]2(C)[C@H](c3ccoc3)CC(=O)C12O (stereo partly drawn) | -4.75
42 | COP(=O)(OC)OC=C(Cl)Cl | -6.68

Row | Structure (SMILES) | growth inhibition [%]
43 | C[C@H]1CC[C@]2(NC1)O[C@H]1C[C@H]3[C@@H]4CC[C@H]5C[C@@H](O)CC[C@]5(C)[C@H]4CC[C@]3(C)[C@H]1[C@@H]2C | -2.54
44 | S=C=NCc1ccccc1 | -41
45 | C[C@]12CCC(=O)C=C1C=C[C@@H]1[C@@H]2CC[C@@]2(C)[C@H]1CC[C@@]2(O)CCC(=O)O | -7.38
46 | CCOP(=S)(OCC)SCn1c(=O)oc2cc(Cl)ccc21 | -5.61
47 | CCNc1nc(Cl)nc(NCC)n1 | 1.4
48 | O=C(O)COc1ccc(Cl)cc1Cl | -9.12
49 | CO[C@H]1[C@H](O)[C@H](O[C@H]2CC[C@@]3(C=O)[C@H](CC[C@@H]4[C@@H]3CC[C@]3(C)[C@@H](C5=CC(=O)OC5)CC[C@]43O)C2)O[C@@H](C)[C@@H]1O | -32
50 | CC[C@@H](C(=O)[C@@H](C)[C@@H](O)[C@H](C)[C@@H]1O[C@@H]([C@@H](CC)C(=O)O)CC[C@@H]1C)[C@H]1O[C@]2(C=C[C@@H](O)[C@]3(CC[C@@](C)([C@H]4CC[C@](O)(CC)[C@H](C)O4)O3)O2)[C@H](C)C[C@@H]1C | -8.96
51 | CC(=O)O[C@@H]1[C@H]2CC[C@H]3[C@@](C)(O)[C@@H]4C[C@H](O)C(C)(C)[C@@]4(O)[C@H](O)C[C@@]13C[C@@]2(C)O | -6.22
52 | COc1cc2c3cc1Oc1c(OC)c(OC)cc4c1[C@@H](Cc1cccc(c1)Oc1ccc(c(O)c1)C[C@@H]3N(C)CC2)N(C)CC4 | -4.24
53 | O=c1ccc2cc(O[C@@H]3O[C@H](CO)[C@@H](O)[C@H](O)[C@H]3O)c(O)cc2o1 | -12.9
54 | COP(=O)(NC(C)=O)SC (stereo not drawn) | -5
55 | NCC(O)c1ccc(O)cc1 (stereo not drawn) | 1.57
56 | O=c1c2ccccc2[se]n1-c1ccccc1 | -36.7
57 | C[C@]12CC[C@H]3[C@@H](CCC4=CC(=O)CC[C@@]43C)[C@@H]1CC[C@@H]2O | -27.8
58 | N=C(NCCC[C@H](N)C(=O)O)N[N+](=O)[O-] | -15.9
59 | C[C@]12CCC(=O)C[C@@H]1CC[C@@H]1[C@@H]2CC[C@]2(C)C(=O)CC[C@@H]12 [5alpha-ANDROSTAN-3,17-DIONE] | -3.3
60 | C[C@]12CC[C@H](O)C[C@H]1CC[C@@H]1[C@@H]2CC[C@]2(C)[C@@H](C3=CC(=O)OC3)[C@@H](O)C[C@]12O | 5.43
61 | CNC(=O)CSP(=S)(OC)OC | -7.29
62 | CCNc1nc(Cl)nc(NC(C)C)n1 | -8.81
63 | COc1c2c(cc3c1OCO3)CCN(C)C2 | -6.26

Laid out differently: results already given
C[C@]12CC[C@H](O)C[C@H]1CC[C@@H]1[C@@H]2CC[C@]2(C)[C@@H](C3=CC(=O)OC3)[C@@H](O)C[C@]12O
  growth inhibition [%]: 5.43
CNC(=O)CSP(=S)(OC)OC
  growth inhibition [%]: -7.29
CCNc1nc(Cl)nc(NC(C)C)n1
  growth inhibition [%]: -8.81
